PubChem BioAssay AID743454, Peter MacCallum Cancer Centre, 2014

- Aim: 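Search for knock-downs that restore vorinostat killing in resistant colon cancer cells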 (primary screen)
- System: human HCT116-VR colon cancer cells, selected for vorinostat resistance
- Reagents: siRNA pool against human genes, 40 nM siRNA pool
- Time to read-out: vorinostat for 24 h, read-out about 72 h after transfection
- Conditions: vorinostat at 2.5 µM final
- Measurement: 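Two measures, CellTiter-Fluor viability and luminescent caspase 3/7 activity, each as fold change against same-plate mock wells, mean of duplicates, then screen-wide robust z-score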
- Reading the numbers: viability robust z-score: higher = more viable cells than screen typical; caspase robust z-score: higher = more caspase 3/7 activity than screen typical
- Active means: 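a knock-down is a hit when classed RV1 or RV2 for lowered viability, or CA1 or CA2 for caspase activation; those lethal without drug were dropped; hits were retested singly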
Shown is a random part of about 18,000 deposited reagents. In the full data, 450 (2.5%) got an active call. 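Single biological run; no consistent viability z cut-off exists, so the class columns, not z-scores, define the calls.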 A number with no mark means an inactive call.

The first 4 records, ahead of the listing:
Gene	viability hit class	caspase hit class	viability robust z-score	caspase robust z-score
SLC10A5	no change	no change	0.16	0.26
PKP4	no change	no change	-1.09	-1.31
H2BC18	no change	no change	1.45	0.13
SMPDL3A	no change	no change	1.12	-0.81

The list itself, from the start:
Gene	viability hit class	caspase hit class	viability robust z-score	caspase robust z-score
SLC10A5	no change	no change	0.16	0.26
PKP4	no change	no change	-1.09	-1.31
H2BC18	no change	no change	1.45	0.13
SMPDL3A	no change	no change	1.12	-0.81
LOC155060	no change	no change	1.38	0.68
FAM3C	no change (active)	CA1 (caspase activation)	0.13	6.65
RPL29	no change	no change	-1.03	3.96
PADI6	no change	no change	0.94	-0.26
KL	no change	no change	0.57	-0.04
CTBP1	no change	no change	-2.66	2.08
RPL3L	no change	no change	-0.45	-0.14
TMEM234	no change	no change	-0.93	0.69
DYNLL1	no change	no change	-0.16	-0.39
DEGS1	no change	no change	0.78	-0.35
RAD54B	no change	no change	-0.18	-0.5
SPINK2	no change	no change	-0.39	0.34
INTS3	no change	no change	-0.19	-0.36
TRIM68	no change	no change	0.31	-0.52
SEMA3C	no change	no change	-1.27	0.87
SHLD2	no change	no change	0.27	-0.52
RAP1GDS1	no change	no change	2.41	0.37
GPR137	no change	no change	0.66	0.34
MUC7	no change	no change	2.08	1.93
CRCT1	no change	no change	-2.82	2.2
OR1A2	no change	no change	1.23	-0.37
TMEM39B	no change	no change	-0.01	0.44
ZNF397	no change	no change	1.29	0.9
FBXO42	no change	no change	0.69	0.37
RAPGEF3	no change	no change	-1.07	3.17
PGAM2	no change	no change	0.74	0.74
COPS7B	no change	no change	0.27	1
SYCP3	no change	no change	0.3	0.99
XKR7	no change	no change	0.69	0.69
SDHA	no change	no change	-0.16	-0.09
NAALADL1	no change	no change	-0.48	1.48
RNPC3	no change	no change	1.05	-0.73
COX7A1	no change	no change	0.01	2.02
BSG	no change	no change	-0.92	-1.45
BCL2	no change	no change	-1.27	-0.94
VASH2	no change	no change	0.51	0.06
BMP8A	no change	no change	0.07	1.4
SLC16A13	no change	no change	-0.78	1.77
LRRC1	no change	no change	-0.12	-0.46
RARS1	no change	no change	-0.86	-0.98
BAG2	no change	no change	0.52	-0.89
PYGO2	no change	no change	-1.21	0.32
CLRN1	no change	no change	-0.29	2.31
APOA4	no change	no change	0.93	2.08
FHDC1	no change	no change	-1.25	0.25
CXCL6	no change	no change	-1.46	-1.15
MAGI1	no change	no change	-0.38	-1.07
KIF26B	no change	no change	-4.38	3.34
ANAPC15	no change	no change	0.96	2.02
DDX55	no change	no change	0.41	-1.08
SLC25A39	no change	no change	-0.87	2.02
PFN1	no change	no change	0.04	1.35
NRIP1	no change	no change	-0.29	-0.88
